Data as given in patent US10213445B2, “Compositions and methods of diazeniumdiolate-based prodrugs for treating cancer” (ARIZONA BOARD OF REGENTS ON BEHALF OF THE UNIVERSITY OF …, priority 2014, dated 2019).

Columns and labels:
[1] = Chemiluminescence detection of HNO in 1 mM ferricyanide solution; format: physicochemical
[2] = NO release measured with NO specific electrode; format: physicochemical; conditions: 2% serum
metmyoglobin (metMb) = test: Reductive nitrosylation of metmyoglobin (HNO trapping); design: species or system horse; conditions: 100 μM compound, 50 μM metMb, deaerated; for yield of MbNO from metMb: out of a possible 50 μM, PBS pH 7.4, 37° C.; for effect of GSH on reductive nitrosylation of metMb / formation of MbNO: 250 μM GSH
[3] = NO quantified by chemiluminescence on hydrolysis; format: physicochemical; conditions: neutral pH

Row | Structure (SMILES) | NO and HNO release [1] | [NO]pA ([2]; +Ferricyanide (1 mM)) | [NO]pA ([2]; without ferricyanide) | yield of MbNO from metMb (metmyoglobin (metMb)) | effect of GSH on reductive nitrosylation of metMb / formation of MbNO (metmyoglobin (metMb)) | species produced on spontaneous hydrolysis [3]
1 | CCN(CC)[N+]([O-])=NOCOC(=O)c1ccccc1OC(C)=O [DEA/NO-aspirin, O2-(Acetylsalicyloyloxymethyl)-1-(N,N-Diethylamino)-diazen-1-ium-1,2-diolate] | shows NO release | 5000 pA | 4600 pA | – | – | –
2 | CC(=O)OCO/N=[N+](\[O-])NC(C)C [Compound 2, O^2-(acetoxymethyl)1-(isopropylamino)diazen-1-ium-1,2-diolate] | – | – | – | ~47 µM | inhibited | –
3 | CC(C)N[N+]([O-])=N[O-].[Na+] [Compound 1, O^2-Sodium 1-(N-Isopropylamino)diazen-1-ium-1,2-diolate, reference compound] | – | – | – | approximately 25 μM | enhanced | produced both NO and HNO
4 | CC(=O)Oc1ccccc1C(=O)OCON=[N+]([O-])NC(C)C [IPA/NO-aspirin, O2-(Acetylsalicyloyloxymethyl)-1-(N-isopropylamino)-diazen-1-ium-1,2-diolate] | showed both NO and HNO release | 2100 pA | 1000 pA | – | – | –
